{
  "sequences": {"note": "Protein sequences, listed by entry. Tags and fused reporters are not part of them.", "UniProt O75417": "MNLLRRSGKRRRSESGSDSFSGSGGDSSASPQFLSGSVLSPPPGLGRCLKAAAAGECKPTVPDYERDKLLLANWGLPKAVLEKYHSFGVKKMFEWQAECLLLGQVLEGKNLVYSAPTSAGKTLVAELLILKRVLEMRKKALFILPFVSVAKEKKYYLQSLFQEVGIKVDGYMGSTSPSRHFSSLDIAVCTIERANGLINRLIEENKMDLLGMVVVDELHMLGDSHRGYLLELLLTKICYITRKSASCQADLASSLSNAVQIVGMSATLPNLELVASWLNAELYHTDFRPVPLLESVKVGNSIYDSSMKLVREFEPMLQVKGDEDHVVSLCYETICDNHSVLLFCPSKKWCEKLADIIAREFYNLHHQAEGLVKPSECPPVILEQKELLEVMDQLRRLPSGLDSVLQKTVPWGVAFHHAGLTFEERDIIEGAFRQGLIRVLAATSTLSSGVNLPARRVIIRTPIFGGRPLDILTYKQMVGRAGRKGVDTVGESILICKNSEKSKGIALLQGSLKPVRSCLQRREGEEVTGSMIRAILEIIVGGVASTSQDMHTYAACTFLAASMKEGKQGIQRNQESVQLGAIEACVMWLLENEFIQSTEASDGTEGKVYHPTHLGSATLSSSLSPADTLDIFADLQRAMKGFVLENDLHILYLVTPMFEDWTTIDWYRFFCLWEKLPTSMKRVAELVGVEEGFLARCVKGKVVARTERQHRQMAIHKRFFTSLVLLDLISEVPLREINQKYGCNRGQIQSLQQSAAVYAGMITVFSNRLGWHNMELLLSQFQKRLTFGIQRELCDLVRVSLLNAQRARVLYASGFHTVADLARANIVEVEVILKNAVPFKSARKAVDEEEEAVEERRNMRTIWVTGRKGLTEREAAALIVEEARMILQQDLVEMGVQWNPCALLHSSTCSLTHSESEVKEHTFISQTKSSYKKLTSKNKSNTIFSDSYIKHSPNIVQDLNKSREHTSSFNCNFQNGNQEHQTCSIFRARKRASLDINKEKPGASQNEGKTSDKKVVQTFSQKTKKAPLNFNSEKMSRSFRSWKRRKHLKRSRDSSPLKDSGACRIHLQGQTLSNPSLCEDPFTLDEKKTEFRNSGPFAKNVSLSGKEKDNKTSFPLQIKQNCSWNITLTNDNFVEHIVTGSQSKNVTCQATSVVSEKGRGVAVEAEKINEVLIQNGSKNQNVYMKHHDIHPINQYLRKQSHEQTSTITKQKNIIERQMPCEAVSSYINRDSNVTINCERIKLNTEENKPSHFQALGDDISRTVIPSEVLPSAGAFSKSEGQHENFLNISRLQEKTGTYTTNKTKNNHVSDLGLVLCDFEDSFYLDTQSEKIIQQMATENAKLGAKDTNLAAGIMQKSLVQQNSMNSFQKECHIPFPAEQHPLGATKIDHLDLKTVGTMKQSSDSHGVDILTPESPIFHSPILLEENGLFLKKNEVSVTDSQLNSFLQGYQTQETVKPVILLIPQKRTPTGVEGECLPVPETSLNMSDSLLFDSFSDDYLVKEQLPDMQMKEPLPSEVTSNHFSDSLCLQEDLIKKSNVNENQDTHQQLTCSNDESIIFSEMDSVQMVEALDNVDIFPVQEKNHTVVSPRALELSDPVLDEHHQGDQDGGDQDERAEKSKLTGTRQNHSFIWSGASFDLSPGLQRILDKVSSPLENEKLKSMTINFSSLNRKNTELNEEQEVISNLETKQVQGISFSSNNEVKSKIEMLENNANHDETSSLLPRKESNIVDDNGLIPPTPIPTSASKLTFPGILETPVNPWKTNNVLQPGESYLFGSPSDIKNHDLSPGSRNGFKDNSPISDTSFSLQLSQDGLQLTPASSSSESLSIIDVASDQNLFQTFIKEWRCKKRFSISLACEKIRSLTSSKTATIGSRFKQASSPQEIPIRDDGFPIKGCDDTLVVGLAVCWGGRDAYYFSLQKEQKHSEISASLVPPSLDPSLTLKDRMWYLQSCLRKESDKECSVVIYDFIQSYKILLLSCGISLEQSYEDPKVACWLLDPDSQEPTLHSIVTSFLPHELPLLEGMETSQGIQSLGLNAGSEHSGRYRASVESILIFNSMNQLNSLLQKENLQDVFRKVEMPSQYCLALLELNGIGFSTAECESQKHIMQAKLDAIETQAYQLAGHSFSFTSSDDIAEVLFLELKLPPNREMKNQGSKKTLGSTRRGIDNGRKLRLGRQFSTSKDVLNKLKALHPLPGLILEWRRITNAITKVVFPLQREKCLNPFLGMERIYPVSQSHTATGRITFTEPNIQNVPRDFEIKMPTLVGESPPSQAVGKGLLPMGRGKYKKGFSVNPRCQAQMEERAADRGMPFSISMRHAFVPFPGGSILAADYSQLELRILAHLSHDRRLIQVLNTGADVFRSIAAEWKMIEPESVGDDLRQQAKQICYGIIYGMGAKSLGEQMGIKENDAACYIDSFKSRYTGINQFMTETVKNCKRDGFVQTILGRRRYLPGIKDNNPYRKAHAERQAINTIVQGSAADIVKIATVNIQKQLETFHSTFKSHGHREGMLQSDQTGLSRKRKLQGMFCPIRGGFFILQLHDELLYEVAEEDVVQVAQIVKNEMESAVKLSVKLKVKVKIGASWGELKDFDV", "UniProt P51587": "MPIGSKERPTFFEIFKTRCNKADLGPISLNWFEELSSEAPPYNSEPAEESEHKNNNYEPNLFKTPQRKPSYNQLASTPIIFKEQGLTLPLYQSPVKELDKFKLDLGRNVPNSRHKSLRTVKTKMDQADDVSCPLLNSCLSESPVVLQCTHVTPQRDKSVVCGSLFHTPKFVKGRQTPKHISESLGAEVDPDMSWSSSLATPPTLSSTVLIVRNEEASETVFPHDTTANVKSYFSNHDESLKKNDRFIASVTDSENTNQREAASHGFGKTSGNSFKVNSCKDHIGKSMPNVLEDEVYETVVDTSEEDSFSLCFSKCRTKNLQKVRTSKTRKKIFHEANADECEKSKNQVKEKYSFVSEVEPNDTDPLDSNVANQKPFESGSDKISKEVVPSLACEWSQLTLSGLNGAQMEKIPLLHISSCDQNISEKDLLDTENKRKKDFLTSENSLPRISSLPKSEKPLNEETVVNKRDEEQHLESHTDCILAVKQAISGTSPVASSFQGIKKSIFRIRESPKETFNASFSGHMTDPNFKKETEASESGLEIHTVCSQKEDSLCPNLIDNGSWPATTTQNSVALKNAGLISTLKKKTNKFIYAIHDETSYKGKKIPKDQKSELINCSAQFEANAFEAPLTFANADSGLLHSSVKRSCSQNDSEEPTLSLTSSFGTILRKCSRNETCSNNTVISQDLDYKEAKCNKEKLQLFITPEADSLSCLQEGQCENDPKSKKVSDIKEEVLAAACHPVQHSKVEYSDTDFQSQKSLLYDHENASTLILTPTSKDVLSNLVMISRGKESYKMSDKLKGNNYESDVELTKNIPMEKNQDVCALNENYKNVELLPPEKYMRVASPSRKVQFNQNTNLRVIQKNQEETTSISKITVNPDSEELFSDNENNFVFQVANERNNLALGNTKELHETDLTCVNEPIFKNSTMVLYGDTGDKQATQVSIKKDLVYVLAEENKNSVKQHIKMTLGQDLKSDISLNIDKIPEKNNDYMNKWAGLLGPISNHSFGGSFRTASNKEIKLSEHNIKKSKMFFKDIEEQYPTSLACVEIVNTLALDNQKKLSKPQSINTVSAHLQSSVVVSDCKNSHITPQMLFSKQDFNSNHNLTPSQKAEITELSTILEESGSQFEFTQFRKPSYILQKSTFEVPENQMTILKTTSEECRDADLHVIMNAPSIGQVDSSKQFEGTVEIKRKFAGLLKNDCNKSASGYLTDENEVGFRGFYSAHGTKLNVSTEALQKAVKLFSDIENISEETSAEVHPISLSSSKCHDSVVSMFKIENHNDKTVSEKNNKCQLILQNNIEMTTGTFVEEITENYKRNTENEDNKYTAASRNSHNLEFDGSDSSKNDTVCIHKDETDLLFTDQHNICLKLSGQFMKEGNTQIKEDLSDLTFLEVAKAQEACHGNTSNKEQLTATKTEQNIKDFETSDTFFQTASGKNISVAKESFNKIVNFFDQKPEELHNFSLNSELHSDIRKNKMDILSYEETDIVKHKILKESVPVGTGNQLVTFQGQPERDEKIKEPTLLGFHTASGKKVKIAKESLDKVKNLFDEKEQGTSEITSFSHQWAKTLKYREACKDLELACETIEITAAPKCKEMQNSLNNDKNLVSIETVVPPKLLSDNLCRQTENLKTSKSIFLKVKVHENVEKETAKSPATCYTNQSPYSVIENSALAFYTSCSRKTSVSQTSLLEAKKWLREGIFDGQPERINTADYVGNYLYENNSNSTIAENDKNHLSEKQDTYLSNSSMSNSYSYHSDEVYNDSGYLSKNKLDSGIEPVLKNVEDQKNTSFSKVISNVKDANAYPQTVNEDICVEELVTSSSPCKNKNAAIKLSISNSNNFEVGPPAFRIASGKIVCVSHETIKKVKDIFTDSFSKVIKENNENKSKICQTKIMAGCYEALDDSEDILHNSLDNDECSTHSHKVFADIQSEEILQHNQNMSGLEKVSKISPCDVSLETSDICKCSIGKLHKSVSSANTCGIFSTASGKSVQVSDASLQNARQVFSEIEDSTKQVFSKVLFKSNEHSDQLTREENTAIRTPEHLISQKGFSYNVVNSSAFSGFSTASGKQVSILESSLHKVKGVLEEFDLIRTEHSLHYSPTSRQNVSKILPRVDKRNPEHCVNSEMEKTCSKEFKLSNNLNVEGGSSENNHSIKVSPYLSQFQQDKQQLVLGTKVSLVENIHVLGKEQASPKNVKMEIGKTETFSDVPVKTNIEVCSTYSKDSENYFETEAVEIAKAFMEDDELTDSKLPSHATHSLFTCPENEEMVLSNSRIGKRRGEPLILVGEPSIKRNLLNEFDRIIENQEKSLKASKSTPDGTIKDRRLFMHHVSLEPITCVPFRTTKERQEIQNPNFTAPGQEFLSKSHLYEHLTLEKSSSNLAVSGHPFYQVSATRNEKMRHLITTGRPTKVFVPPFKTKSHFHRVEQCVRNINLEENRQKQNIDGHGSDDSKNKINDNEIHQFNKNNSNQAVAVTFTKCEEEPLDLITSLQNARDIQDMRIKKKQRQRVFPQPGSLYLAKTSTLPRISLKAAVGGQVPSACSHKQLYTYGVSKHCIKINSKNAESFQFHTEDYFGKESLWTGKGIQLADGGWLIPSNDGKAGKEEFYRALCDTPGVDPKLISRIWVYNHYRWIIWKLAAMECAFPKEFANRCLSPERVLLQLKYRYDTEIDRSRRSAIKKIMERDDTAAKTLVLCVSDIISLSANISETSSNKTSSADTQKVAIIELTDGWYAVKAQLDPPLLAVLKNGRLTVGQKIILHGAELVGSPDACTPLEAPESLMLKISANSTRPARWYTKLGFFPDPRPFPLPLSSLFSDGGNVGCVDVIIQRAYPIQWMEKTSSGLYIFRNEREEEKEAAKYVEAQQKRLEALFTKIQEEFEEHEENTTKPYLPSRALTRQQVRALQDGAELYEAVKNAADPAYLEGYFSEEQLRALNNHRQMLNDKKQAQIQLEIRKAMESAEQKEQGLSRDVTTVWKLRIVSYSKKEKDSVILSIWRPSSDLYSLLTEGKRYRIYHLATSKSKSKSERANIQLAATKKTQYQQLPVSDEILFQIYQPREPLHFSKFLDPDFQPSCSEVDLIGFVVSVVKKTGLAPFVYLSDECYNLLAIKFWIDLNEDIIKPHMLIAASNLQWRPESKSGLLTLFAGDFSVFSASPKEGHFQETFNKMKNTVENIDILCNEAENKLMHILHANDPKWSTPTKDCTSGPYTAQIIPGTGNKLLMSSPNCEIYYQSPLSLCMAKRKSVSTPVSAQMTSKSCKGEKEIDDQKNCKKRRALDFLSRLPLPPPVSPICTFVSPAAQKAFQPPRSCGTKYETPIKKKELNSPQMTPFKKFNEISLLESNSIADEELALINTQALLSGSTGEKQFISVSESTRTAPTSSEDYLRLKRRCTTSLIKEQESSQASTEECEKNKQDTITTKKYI"},
  "source": "paper PMC10499603",
  "about": "“Polθ is phosphorylated by PLK1 to repair double-strand breaks in mitosis” (Nature, 2023)",
  "molecular_target": "endogenous NeonGreen-tagged DNA polymerase theta (Polθ) (human (endogenous in HEK-293T)) (UniProt O75417)",
  "test": "affinity purification with mass spectrometry; mNeonGreen-Trap magnetic agarose beads, 5 mg nuclear extract of HEK-293T NeonGreen-POLQ knock-in cells, 2 h at 4 °C; washes with 150 mM and 300 mM NaCl; label-free LC-MS/MS; native HEK extract as control",
  "note": "These are yes or no findings as the source states them, for the method shown. Binding seen in cells or lysates may run through a third protein. A yes stands for co-enrichment or nearness to the bait. Other partners may have been found.",
  "data": [
    {"substance": "BRCA2 (from UniProt P51587 1-3418)", "values": [
      {"measurement": "binding", "value": "binds"}
    ]}
  ]
}
